{"source": "patent US20240317845A1", "about": "(NINGBO SANSHENG BIOLOGICAL TECHNOLOGY, published 2024)", "binders": {"B1": {"name": "anti-inhibin monoclonal antibody 1E5 secreted by hybridoma cell line 1E57 (antibody, V domains shown)", "VH": "EVKLVESGPELKKPGETVKISCKASGYTFTDYSMHWVKQAPGKGLKWMGWINTETGEPTYADDFKGRFAFSLETSASTAYLQINNLKNEDTATYFCAYYGPPTYSLDYWGQGASVTVSS", "VL": "DIQMTQTTSSLSASLGDRVTISCRASQGISNYLNWYQQKPDGTVKLLIYYTSRLLSGVPSRFSGSGSGTDYSLTISNLEQEDIATYFCQQGYTLPFTFGSGTKLEIK", "notes": "Mouse hybridoma antibody; Tested as culture supernatant, as ascites and as Protein G purified ascites antibody; also called 1E57 culture supernatant; ascites-derived monoclonal antibody 1E5"}}, "biological_target": "6-25 fragment of inhibin α-subunits coupled to chicken ovalbumin (OVA) (porcine (fragment said to be 100% identical in mice, rats, pigs, cattle and goats); chicken) (UniProt P01012)", "experiment": "indirect ELISA, plate coated with 6-25 fragment-OVA, culture supernatant", "note": "These are yes or no findings as the source states them, for the method shown. Some results given as binding are weak or reduced against the parent protein; the word gives no strength."}
{"binder": "B1", "values": [{"measurement": "binding", "result": "binds"}]}
